Source: publication PMC4332150
These are yes or no findings as the source states them, for the method shown. In cells and extracts the contact can be indirect. A yes stands for co-enrichment or nearness to the bait. Other partners may have been found. For some assays here: No binding means not detected with the bait. For some assays here: Where a sequence is shown, tags or fusion partners need not be part of it.

Protein sequences, listed by entry. Tags and fused reporters are not part of them.
UniProt P05412: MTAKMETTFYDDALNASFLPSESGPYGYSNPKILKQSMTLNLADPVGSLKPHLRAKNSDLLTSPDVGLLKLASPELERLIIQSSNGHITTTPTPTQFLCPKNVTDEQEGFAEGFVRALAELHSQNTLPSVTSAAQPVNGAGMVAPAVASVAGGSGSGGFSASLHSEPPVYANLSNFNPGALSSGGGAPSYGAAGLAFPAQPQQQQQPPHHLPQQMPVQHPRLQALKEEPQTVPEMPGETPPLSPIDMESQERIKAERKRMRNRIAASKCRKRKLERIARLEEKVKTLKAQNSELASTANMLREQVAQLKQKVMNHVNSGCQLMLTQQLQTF

B1: S100A7 (endogenous) (protein, UniProt P31151 1-101)
chain: MSNTQAERSIIGMIDMFHKYTRRDDKIEKPSLLTMMKENFPNFLSACDKKGTNYLADVFEKKDKNEDKKIDFSEFLSLLGDIATDYHKQSHGAAPCSGGSQ
B2: IARS (endogenous) (protein, UniProt P41252 1-1262)
chain: MLQQVPENINFPAEEEKILEFWTEFNCFQECLKQSKHKPKFTFYDGPPFATGLPHYGHILAGTIKDIVTRYAHQSGFHVDRRFGWDCHGLPVEYEIDKTLGIRGPEDVAKMGITEYNNQCRAIVMRYSAEWKSTVSRLGRWIDFDNDYKTLYPQFMESVWWVFKQLYDKGLVYRGVKVMPFSTACNTPLSNFESHQNYKDVQDPSVFVTFPLEEDETVSLVAWTTTPWTLPSNLAVCVNPEMQYVKIKDVARGRLLILMEARLSALYKLESDYEILERFPGAYLKGKKYRPLFDYFLKCKENGAFTVLVDNYVKEEEGTGVVHQAPYFGAEDYRVCMDFNIIRKDSLPVCPVDASGCFTTEVTDFAGQYVKDADKSIIRTLKEQGRLLVATTFTHSYPFCWRSDTPLIYKAVPSWFVRVENMVDQLLRNNDLCYWVPELVREKRFGNWLKDARDWTISRNRYWGTPIPLWVSDDFEEVVCIGSVAELEELSGAKISDLHRESVDHLTIPSRCGKGSLHRISEVFDCWFESGSMPYAQVHYPFENKREFEDAFPADFIAEGIDQTRGWFYTLLVLATALFGQPPFKNVIVNGLVLASDGQKMSKRKKNYPDPVSIIQKYGADALRLYLINSPVVRAENLRFKEEGVRDVLKDVLLPWYNAYRFLIQNVLRLQKEEEIEFLYNENTVRESPNITDRWILSFMQSLIGFFETEMAAYRLYTVVPRLVKFVDILTNWYVRMNRRRLKGENGMEDCVMALETLFSVLLSLCRLMAPYTPFLTELMYQNLKVLIDPVSVQDKDTLSIHYLMLPRVREELIDKKTESAVSQMQSVIELGRVIRDRKTIPIKYPLKEIVVIHQDPEALKDIKSLEKYIIEELNVRKVTLSTDKNKYGIRLRAEPDHMVLGKRLKGAFKAVMTSIKQLSSEELEQFQKTGTIVVEGHELHDEDIRLMYTFDQATGGTAQFEAHSDAQALVLLDVTPDQSMVDEGMAREVINRIQKLRKKCNLVPTDEITVYYKAKSEGTYLNSVIESHTEFIFTTIKAPLKPYPVSPSDKVLIQEKTQLKGSELEITLTRGSSLPGPACAYVNLNICANGSEQGGVLLLENPKGDNRLDLLKLKSVVTSIFGVKNTELAVFHDETEIQNQTDLLSLSGKTLCVTAGSAPSLINSSSTLLCQYINLQLLNAKPQECLMGTVGTLLLENPLGQNGLTHQGLLYEAAKVFGLRSRKLKLFLNETQTQEITEDIPVKTLNMKTVYVSVLPTTADF
B3: DARS (endogenous) (protein, UniProt P14868 1-501)
chain: MPSASASRKSQEKPREIMDAAEDYAKERYGISSMIQSQEKPDRVLVRVRDLTIQKADEVVWVRARVHTSRAKGKQCFLVLRQQQFNVQALVAVGDHASKQMVKFAANINKESIVDVEGVVRKVNQKIGSCTQQDVELHVQKIYVISLAEPRLPLQLDDAVRPEAEGEEEGRATVNQDTRLDNRVIDLRTSTSQAVFRLQSGICHLFRETLINKGFVEIQTPKIISAASEGGANVFTVSYFKNNAYLAQSPQLYKQMCICADFEKVFSIGPVFRAEDSNTHRHLTEFVGLDIEMAFNYHYHEVMEEIADTMVQIFKGLQERFQTEIQTVNKQFPCEPFKFLEPTLRLEYCEALAMLREAGVEMGDEDDLSTPNEKLLGHLVKEKYDTDFYILDKYPLAVRPFYTMPDPRNPKQSNSYDMFMRGEEILSGAQRIHDPQLLTERALHHGIDLEKIKAYIDSFRFGAPPHAGGGIGLERVTMLFLGLHNVRQTSMFPRDPKRLTP
B4: PARS2 (endogenous) (protein, UniProt Q7L3T8 30-475)
chain: HHCAPRRGRRLLLSRVFQPQNLREDRVLSLQDKSDDLTCKSQRLMLQVGLIYPASPGCYHLLPYTVRAMEKLVRVIDQEMQAIGGQKVNMPSLSPAELWQATNRWDLMGKELLRLRDRHGKEYCLGPTHEEAITALIASQKKLSYKQLPFLLYQVTRKFRDEPRPRFGLLRGREFYMKDMYTFDSSPEAAQQTYSLVCDAYCSLFNKLGLPFVKVQADVGTIGGTVSHEFQLPVDIGEDRLAICPRCSFSANMETLDLSQMNCPACQGPLTKTKGIEVGHTFYLGTKYSSIFNAQFTNVCGKPTLAEMGCYGLGVTRILAAAIEVLSTEDCVRWPSLLAPYQACLIPPKKGSKEQAASELIGQLYDHITEAVPQLHGEVLLDDRTHLTIGNRLKDANKFGYPFVIIAGKRALEDPAHFEVWCQNTGEVAFLTKDGVMDLLTPVQTV
B5: QARS (endogenous) (protein, UniProt P47897 1-775)
chain: MAALDSLSLFTSLGLSEQKARETLKNSALSAQLREAATQAQQTLGSTIDKATGILLYGLASRLRDTRRLSFLVSYIASKKIHTEPQLSAALEYVRSHPLDPIDTVDFERECGVGVIVTPEQIEEAVEAAINRHRPQLLVERYHFNMGLLMGEARAVLKWADGKMIKNEVDMQVLHLLGPKLEADLEKKFKVAKARLEETDRRTAKDVVENGETADQTLSLMEQLRGEALKFHKPGENYKTPGYVVTPHTMNLLKQHLEITGGQVRTRFPPEPNGILHIGHAKAINFNFGYAKANNGICFLRFDDTNPEKEEAKFFTAICDMVAWLGYTPYKVTYASDYFDQLYAWAVELIRRGLAYVCHQRGEELKGHNTLPSPWRDRPMEESLLLFEAMRKGKFSEGEATLRMKLVMEDGKMDPVAYRVKYTPHHRTGDKWCIYPTYDYTHCLCDSIEHITHSLCTKEFQARRSSYFWLCNALDVYCPVQWEYGRLNLHYAVVSKRKILQLVATGAVRDWDDPRLFTLTALRRRGFPPEAINNFCARVGVTVAQTTMEPHLLEACVRDVLNDTAPRAMAVLESLRVIITNFPAAKSLDIQVPNFPADETKGFHQVPFAPIVFIERTDFKEEPEPGFKRLAWGQPVGLRHTGYVIELQHVVKGPSGCVESLEVTCRRADAGEKPKAFIHWVSQPLMCEVRLYERLFQHKNPEDPTEVPGGFLSDLNLASLHVVDAALVDCSVALAKPFDKFQFERLGYFSVDPDSHQGKLVFNRTVTLKEDPGKV
B6: C22orf28 (endogenous) (protein, UniProt Q9Y3I0 1-505)
chain: MSRSYNDELQFLEKINKNCWRIKKGFVPNMQVEGVFYVNDALEKLMFEELRNACRGGGVGGFLPAMKQIGNVAALPGIVHRSIGLPDVHSGYGFAIGNMAAFDMNDPEAVVSPGGVGFDINCGVRLLRTNLDESDVQPVKEQLAQAMFDHIPVGVGSKGVIPMNAKDLEEALEMGVDWSLREGYAWAEDKEHCEEYGRMLQADPNKVSARAKKRGLPQLGTLGAGNHYAEIQVVDEIFNEYAAKKMGIDHKGQVCVMIHSGSRGLGHQVATDALVAMEKAMKRDKIIVNDRQLACARIASPEGQDYLKGMAAAGNYAWVNRSSMTFLTRQAFAKVFNTTPDDLDLHVIYDVSHNIAKVEQHVVDGKERTLLVHRKGSTRAFPPHHPLIAVDYQLTGQPVLIGGTMGTCSYVLTGTEQGMTETFGTTCHGAGRALSRAKSRRNLDFQDVLDKLADMGIAIRVASPKLVMEEAPESYKNVTDVVNTCHDAGISKKAIKLRPIAVIKG
B7: CREB5 (endogenous) (protein, UniProt Q02930 1-508)
chain: MIYEESKMNLEQERPFVCSAPGCSQRFPTEDHLMIHRHKHEMTLKFPSIKTDNMLSDQTPTPTRFLKNCEEVGLFSELDCSLEHEFRKAQEEESSKRNISMHNAVGGAMTGPGTHQLSSARLPNHDTNVVIQQAMPSPQSSSVITQAPSTNRQIGPVPGSLSSLLHLHNRQRQPMPASMPGTLPNPTMPGSSAVLMPMERQMSVNSSIMGMQGPNLSNPCASPQVQPMHSEAKMRLKAALTHHPAAMSNGNMNTMGHMMEMMGSRQDQTPHHHMHSHPHQHQTLPPHHPYPHQHQHPAHHPHPQPHHQQNHPHHHSHSHLHAHPAHHQTSPHPPLHTGNQAQVSPATQQMQPTQTIQPPQPTGGRRRRVVDEDPDERRRKFLERNRAAATRCRQKRKVWVMSLEKKAEELTQTNMQLQNEVSMLKNEVAQLKQLLLTHKDCPITAMQKESQGYLSPESSPPASPVPACSQQQVIQHNTITTSSSVSEVVGSSTLSQLTTHRTDLNPIL

Legend:
SFB-tagged FOXM1 (human) [1] = target: T1, SFB-tagged FOXM1 (human) (UniProt Q08050); assay: affinity purification with mass spectrometry; TAP (streptavidin beads, biotin elution, S-protein beads; NETN buffer) of C-terminally SFB-tagged bait from HEK293T; soluble fraction (supernatant of the NETN lysate); forward and reciprocal purifications
T1 sequence: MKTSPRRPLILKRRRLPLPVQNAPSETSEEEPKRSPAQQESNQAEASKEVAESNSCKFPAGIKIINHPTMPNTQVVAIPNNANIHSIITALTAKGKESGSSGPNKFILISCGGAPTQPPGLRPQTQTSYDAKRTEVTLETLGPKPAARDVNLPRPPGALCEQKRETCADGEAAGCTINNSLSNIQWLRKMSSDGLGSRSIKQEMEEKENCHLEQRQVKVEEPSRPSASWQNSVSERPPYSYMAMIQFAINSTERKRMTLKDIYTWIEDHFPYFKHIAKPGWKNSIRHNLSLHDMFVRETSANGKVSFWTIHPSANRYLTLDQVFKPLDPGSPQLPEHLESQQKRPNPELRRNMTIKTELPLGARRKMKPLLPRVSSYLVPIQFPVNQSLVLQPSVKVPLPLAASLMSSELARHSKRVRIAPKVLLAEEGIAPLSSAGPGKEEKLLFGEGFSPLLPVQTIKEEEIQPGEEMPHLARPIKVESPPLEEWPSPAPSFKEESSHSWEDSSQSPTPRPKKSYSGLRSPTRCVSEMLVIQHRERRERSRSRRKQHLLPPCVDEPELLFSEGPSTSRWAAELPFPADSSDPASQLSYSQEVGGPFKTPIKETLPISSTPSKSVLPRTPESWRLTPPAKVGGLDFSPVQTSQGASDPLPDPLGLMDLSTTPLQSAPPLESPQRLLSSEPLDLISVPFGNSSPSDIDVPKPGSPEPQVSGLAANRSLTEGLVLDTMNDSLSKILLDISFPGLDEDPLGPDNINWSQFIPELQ

SFB-tagged FOXM1 (human) [2] = target: T1, SFB-tagged FOXM1 (human); assay: affinity purification with mass spectrometry; TAP (streptavidin beads, biotin elution, S-protein beads; NETN buffer) of C-terminally SFB-tagged bait from HEK293T; chromatin fraction (pellet after NETN lysis, digested with TurboNuclease); forward and reciprocal purifications; some baits also after drug treatment
[3] = target: JUN (endogenous) (human (endogenous in HEK293T)) (UniProt P05412); assay: affinity purification with mass spectrometry; AP/MS with antibodies against endogenous JUN; chromatin fraction
[4] = target: JUN (endogenous) (human (endogenous in HEK293T)) (UniProt P05412); assay: affinity purification with mass spectrometry; AP/MS with antibodies against endogenous JUN; soluble fraction

Row | Binder | binding (SFB-tagged FOXM1 (human) [1]) | binding (SFB-tagged FOXM1 (human) [2]) | binding [3] | binding [4]
1 | B1 | no binding (only in the soluble fraction) | binds | – | –
2 | B2 | binds | no binding (only in the chromatin fraction) | – | –
3 | B3 | binds | no binding (only in the chromatin fraction) | – | –
4 | B4 | binds | no binding (only in the chromatin fraction) | – | –
5 | B5 | binds | no binding (only in the chromatin fraction) | – | –
6 | B6 | binds | no binding (only in the chromatin fraction) | – | –
7 | B7 | – | – | binds | binds
